According to article PMC10645587:
These are yes or no findings as the source states them, for the method shown. In cells and extracts the contact can be indirect. Sequences can lack the tags named with a protein. Values belong to the binder of their own block, whether it stands above or below them.

Molecular target: Flag-tagged EGFR deletion mutant with the amino terminus (receptor region) deleted
Assay: co-IP; A549 cells transfected with Flag-EGFR or LAMC2-His vectors (against the endogenous partner), A549 and HEK-293T cells co-transfected with both; lysates (150 mM NaCl, 1% NP-40, 50 mM Tris-HCl pH 8.0, protease inhibitor); primary antibody on Dynal magnetic beads overnight at 4 °C, five washes with PBS, western blot

- binding: no binding
B1: Laminin-5γ-2 (LAMC2), endogenous (protein, UniProt Q13753 22-1193)
chain: TSRREVCDCNGKSRQCIFDRELHRQTGNGFRCLNCNDNTDGIHCEKCKNGFYRHRERDRCLPCNCNSKGSLSARCDNSGRCSCKPGVTGARCDRCLPGFHMLTDAGCTQDQRLLDSKCDCDPAGIAGPCDAGRCVCKPAVTGERCDRCRSGYYNLDGGNPEGCTQCFCYGHSASCRSSAEYSVHKITSTFHQDVDGWKAVQRNGSPAKLQWSQRHQDVFSSAQRLDPVYFVAPAKFLGNQQVSYGQSLSFDYRVDRGGRHPSAHDVILEGAGLRITAPLMPLGKTLPCGLTKTYTFRLNEHPSNNWSPQLSYFEYRRLLRNLTALRIRATYGEYSTGYIDNVTLISARPVSGAPAPWVEQCICPVGYKGQFCQDCASGYKRDSARLGPFGTCIPCNCQGGGACDPDTGDCYSGDENPDIECADCPIGFYNDPHDPRSCKPCPCHNGFSCSVMPETEEVVCNNCPPGVTGARCELCADGYFGDPFGEHGPVRPCQPCQCNNNVDPSASGNCDRLTGRCLKCIHNTAGIYCDQCKAGYFGDPLAPNPADKCRACNCNPMGSEPVGCRSDGTCVCKPGFGGPNCEHGAFSCPACYNQVKIQMDQFMQQLQRMEALISKAQGGDGVVPDTELEGRMQQAEQALQDILRDAQISEGASRSLGLQLAKVRSQENSYQSRLDDLKMTVERVRALGSQYQNRVRDTHRLITQMQLSLAESEASLGNTNIPASDHYVGPNGFKSLAQEATRLAESHVESASNMEQLTRETEDYSKQALSLVRKALHEGVGSGSGSPDGAVVQGLVEKLEKTKSLAQQLTREATQAEIEADRSYQHSLRLLDSVSRLQGVSDQSFQVEEAKRIKQKADSLSSLVTRHMDEFKRTQKNLGNWKEEAQQLLQNGKSGREKSDQLLSRANLAKSRAQEALSMGNATFYEVESILKNLREFDLQVDNRKAEAEEAMKRLSYISQKVSDASDKTQQAERALGSAAADAQRAKNGAGEALEISSEIEQEIGSLNLEANVTADGALAMEKGLASLKSEMREVEGELERKELEFDTNMDAVQMVITEAQKVDTRAKNAGVTIQDTLNTLDGLLHLMDQPLSVDEEGLVLLEQKLSRAKTQINSQLRPMMSELEERARQQRGHLHLLETSIDGILADVKNLENIRDNLPPGCYNTQALEQQ

- binding: no binding
B2: His-tagged LAMC2 (WT) (protein, UniProt Q13753 22-1193)
chain: B1 chain
